In paper PMC4694719:

Tests used:
Test in all cases: two-hybrid; LexA-based yeast two-hybrid system (BD Clontech), LexA-CSU2 fusions and B42AD-COP1 fusions co-transformed into yeast strain EGY48, β-galactosidase activity
[1] = target: T1, COP1 SUPPRESSOR 2 (CSU2), full length, LexA fusion (Arabidopsis thaliana) (UniProt F4HVZ5)
T1 sequence: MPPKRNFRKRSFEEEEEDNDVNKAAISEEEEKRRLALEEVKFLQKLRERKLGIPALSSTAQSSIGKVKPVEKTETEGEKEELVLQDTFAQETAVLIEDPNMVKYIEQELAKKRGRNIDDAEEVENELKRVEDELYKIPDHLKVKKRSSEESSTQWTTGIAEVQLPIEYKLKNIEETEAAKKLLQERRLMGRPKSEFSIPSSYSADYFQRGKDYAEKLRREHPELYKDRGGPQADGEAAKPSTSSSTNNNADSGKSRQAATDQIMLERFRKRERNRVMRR

[2] = target: CSU2 coiled-coil domain, LexA fusion (Arabidopsis thaliana)
[3] = target: CSU2 lacking the coiled-coil domain, LexA fusion (Arabidopsis thaliana)

binding [1]: no binding
Molecule: COP1 Ring, B42 activation domain fusion (Arabidopsis thaliana) (domain or fragment)

binding [1]: no binding
Molecule: COP1 WD40, B42 activation domain fusion (Arabidopsis thaliana) (domain or fragment)

binding [1]: binds
Molecule: COP1 coil, B42 activation domain fusion (Arabidopsis thaliana) (domain or fragment)

binding [1]: binds
Molecule: COP1 ΔRing, B42 activation domain fusion (Arabidopsis thaliana) (domain or fragment)

binding [2]: binds
binding [3]: no binding
B1: COP1 N282, B42 activation domain fusion (domain or fragment, UniProt P43254 1-282)
chain: MEEISTDPVVPAVKPDPRTSSVGEGANRHENDDGGSGGSEIGAPDLDKDLLCPICMQIIKDAFLTACGHSFCYMCIITHLRNKSDCPCCSQHLTNNQLYPNFLLDKLLKKTSARHVSKTASPLDQFREALQRGCDVSIKEVDNLLTLLAERKRKMEQEEAERNMQILLDFLHCLRKQKVDELNEVQTDLQYIKEDINAVERHRIDLYRARDRYSVKLRMLGDDPSTRNAWPHEKNQIGFNSNSLSIRGGNFVGNYQNKKVEGKAQGSSHGLPKKDALSGSDS

No constants are given. Whether binding was seen depends on the method and setting. For part of these data: Binding calls can cover weak binding; strength is not graded here. Tags and fused reporters may be left off the sequences shown. Each block holds one molecule with its values, some of them ahead of it.
